Results deposited as PubChem BioAssay AID652272 (Drosophila RNAi Screening Center, 2013).
Purpose: 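Finding fly genes that regulate Hedgehog signal transduction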 (primary screen). Cells: Drosophila clone 8 (Cl8) cells. Reagent: long dsRNA against Drosophila genes. Measurement: 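Firefly light from a Hedgehog-responsive ptc promoter reporter and Renilla reference light, both read on a plate reader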. Scale: firefly Hh reporter signal: higher = more ptc reporter light; Renilla reference signal: higher = more Renilla control light. Hit rule: 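Called a hit if the two-replicate mean z-score lies below -2 or above +3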. Calls: active = hit: reporter lowered or raised; inactive = not a hit.
The deposit covers about 21,000 reagents; below is a random part of those with a known target gene and a result. Over the whole deposit, 503 (2.4%) were called active. 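Raw plate light values, not normalised; calls rest on replicate z-scores that were not deposited; hits include reporter decreases as well as increases.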 A number with no mark means an inactive call. Names joined by + are all predicted targets of the reagent. Not stated in the record: the amount of reagent, the time to read-out.

gene knocked down	DRSC id	firefly Hh reporter signal, replicate 1	firefly Hh reporter signal, replicate 2	firefly Hh reporter signal, replicate 3	Renilla reference signal, replicate 1	Renilla reference signal, replicate 2
RpL37-1	DRSC20149	3.64e5 (active)	1.19e5	2.65e5	5254	4406
Uro	DRSC03469	1.02e5	70899		1672	6107
GstO2	DRSC10691	77228	52465		3496	2352
CG5687	DRSC08568	1.01e5	71666		5073	2928
lin-52	DRSC18106	1.03e5	1.78e5		4260	7800
CG8051	DRSC20077	98272	2.00e5		3920	8346
CG18336	DRSC06334	1.00e5	43991		2829	3648
CG3795	DRSC18593	1.40e5	80819		3421	2593
kri	DRSC10515	1.13e5	1.01e5		6188	4205
CG40583 (retired record)	DRSC20938	5.86e5	1.59e5		31976	4132
D19B	DRSC11134	46685	37872		3532	2640
put	DRSC17039	95988	69232		3833	2615
CG34166	DRSC02482	6.83e5	1.15e5		4135	4135
CG14177 (retired record)	DRSC10176	32187	95014	90097	8824	6615
CG6709 + Hez	DRSC10165	23942	64634	64454	5332	3616
CG6709 + Hez	DRSC10698	71436	54420	83785	3881	5760
Mov10	DRSC07012	1.04e5	76875		4576	3280
CG43068	DRSC05538	1.38e5	2.18e5		3463	9436
CG10063	DRSC09688	88832	63035		8649	5780
CG15919	DRSC06594	6.30e5	1.13e5		4968	4968
CG14565	DRSC11726	1.16e5	1.25e5		4236	13562
dhd	DRSC18761	1.40e5	1.12e5		3195	2836
Cog8	DRSC02961	91690	1.13e5		4250	4556
chm	DRSC03341	97376	87927		4199	3878
Antdh	DRSC20307	66198	1.61e5		1648	6640

Targets above whose gene name starts with D or d (2):
gene knocked down	DRSC id	firefly Hh reporter signal, replicate 1	firefly Hh reporter signal, replicate 2	firefly Hh reporter signal, replicate 3	Renilla reference signal, replicate 1	Renilla reference signal, replicate 2
D19B	DRSC11134	46685	37872		3532	2640
dhd	DRSC18761	1.40e5	1.12e5		3195	2836

Further records follow.
gene knocked down	DRSC id	firefly Hh reporter signal, replicate 1	firefly Hh reporter signal, replicate 2	firefly Hh reporter signal, replicate 3	Renilla reference signal, replicate 1	Renilla reference signal, replicate 2
dtr	DRSC01847	1.14e5	1.50e5		3413	7217
Rrp5	DRSC15862	89613	76532		4640	3705
BBS9	DRSC04257	96453	64690		2672	6220
Lsd-2	DRSC20143	1.39e5	1.00e5		3059	2637
Pdf	DRSC16786	4.46e5	64452		2265	2265
CG15097	DRSC06526	1.08e5	86762		5196	3568
l(2)k14505	DRSC03106	1.05e5	61036		4548	2752
CG7379	DRSC16237	1.72e5	1.13e5		7216	4432
Rsbp15	DRSC14176	76594	1.05e5		2275	2288
GstE11	DRSC06926	1.24e5	81872		5194	3821
aop	DRSC00801	51480	35219		1418	971
CG18666	DRSC02694	1.15e5	69174		3522	7075
CG1648	DRSC06610	1.57e5	4.39e5	99824	5553	25860
CG1812	DRSC20557	1.45e5	1.40e5		3554	3818
up	DRSC20382	52521	50197		1296	1140
CG12576	DRSC20621	55249	1.38e5		1258	6006
CG7130	DRSC11797	1.47e5	1.40e5		4944	4105
crm	DRSC18754	1.13e5	1.67e5		1728	4678
I-t	DRSC16713	74000	91829		2389	2656
spin	DRSC07176	1.31e5	6.15e5	1.06e5	5031	38921
CG34006 (retired record)	DRSC13817	56235	2.42e5		13158	5813
ine	DRSC00822	1.04e5	75136		4160	2512
CG10814	DRSC06004	99639	62961		3820	2471
sd	DRSC20370	81200	1.66e5		3011	8409
Hsp83	DRSC08664	2.06e5	67509		3008	1208
Jon44E	DRSC07216	62321	40033		1388	3216
rhi	DRSC05996	70907	47616		1881	3159
CG13423	DRSC06386	85672	48887		2521	1682
Sdb	DRSC06272	1.15e5	51305		2710	2629
Sdb	DRSC06273	1.55e5	59940		3922	2711
Sdb	DRSC07155	1.27e5	66502		4829	2876
CR17024	DRSC02562	2.22e5	83324		5860	8199
